Assay results published in PubChem BioAssay AID1439 (NMMLSC, 2008).
The campaign covered roughly 220,000 compounds. About 770 (0.35%) were called active. This list was built around the results that the source calls inconclusive (neither active nor inactive); the mix of calls is not that of the screen. Cut-off read from the data, not from the text of the source: active = binding response below about 49% or above about 150%; inconclusive = no clear call, values can overlap the other calls; inactive = in between.

Protein sequences, listed by entry. Tags and fused reporters are not part of them.
UniProt P09471, whole entry, looked up: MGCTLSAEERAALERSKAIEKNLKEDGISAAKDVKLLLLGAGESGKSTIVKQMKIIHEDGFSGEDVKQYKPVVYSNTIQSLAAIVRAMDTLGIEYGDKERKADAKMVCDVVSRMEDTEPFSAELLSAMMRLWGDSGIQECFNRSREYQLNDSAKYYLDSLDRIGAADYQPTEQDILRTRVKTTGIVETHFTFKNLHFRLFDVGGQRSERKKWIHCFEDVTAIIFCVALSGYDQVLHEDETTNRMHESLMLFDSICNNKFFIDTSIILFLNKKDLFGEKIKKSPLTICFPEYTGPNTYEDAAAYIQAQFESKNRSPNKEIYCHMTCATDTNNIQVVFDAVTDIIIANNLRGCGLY

What follows are compounds tested against Guanine nucleotide-binding protein G(o) subunit alpha (Homo sapiens) (UniProt P09471) (assay: RGS7-Galphao binding modulators, primary screen, biochemical, multiplexed bead flow cytometry (AID 1439;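 note: fluorescent Galphao held in activated GDP-AlF4 state binding bead-coupled RGS7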)). Settings: at 10 µM, actives lie on both sides.
In the case of `Nn1c(SCc2cccc(Cl)c2)nnc1-c1ccncc1`, the binding response (% of control) was inconclusive: 99.5%. For `Cc1ccc(-c2cc(Cc3ccccn3)c(=O)[nH]n2)cc1`, the binding response (% of control) was inconclusive: 78.6%. With `Cc1ccc(-n2c(C)cc(/C=C3\NC(=O)NC3=O)c2C)c(C)c1` the binding response (% of control) was inactive: 99.5%. In the case of `CCS(=O)(=O)N1CCN(C(=O)c2ccccc2[N+](=O)[O-])CC1`, the binding response (% of control) was inconclusive: 112%. In the case of `COC(=O)Nc1ccc(S(=O)(=O)N2CCCC(C(=O)N3CCOCC3)C2)cc1` (configuration not stated), the binding response (% of control) was inconclusive: 68.3%. In the case of `COc1ccccc1-n1c(-c2cn(C)nc2C)n[nH]c1=S`, the binding response (% of control) was inactive: 96.3%. With `O=C(NC(=S)Nc1ccccc1Cl)c1cncc(C#Cc2ccccc2)c1` the binding response (% of control) was inconclusive: 81.4%. With `C/C=C/C=C\C(=O)Nc1cccc(C2=NOC3(C2)C[C@H](C(N)=O)N(C(=O)CC#N)C3)c1` (some centres not stated) the binding response (% of control) was inconclusive: 81%. In the case of `O=C(CN1C(=O)COc2ccc(S(=O)(=O)N3CCOCC3)cc21)NCc1ccco1`, the binding response (% of control) was inconclusive: 120%. In the case of `COc1ccc(C(NC(=O)C2C3C=CC(C3)C2C(=O)O)c2ccccc2)cc1` (configuration not stated), the binding response (% of control) was inactive: 102%. With `CC(=O)N(Cc1ccccc1C)c1cccc(C)c1C` the binding response (% of control) was inactive: 102%. For `COc1ccc(/C=N/Nc2ncnc3sc4c(c23)CCCC4)cc1OC`, the binding response (% of control) was inactive: 98%. `CN(C)CCCNc1ncnc2sc(-c3ccccc3)cc12` was tested, and the binding response (% of control) was inconclusive: 93.1%. For `Cc1ccsc1/C=C1/CN(C)Cc2c1nc1ccccc1c2C(=O)O`, the binding response (% of control) was inconclusive: 86.9%. In the case of `COc1ccccc1NC(=O)Nc1cccc(NC(C)=O)c1`, the binding response (% of control) was inconclusive: 98.2%. For `O=C(CSc1nnc(-c2ccncc2)n1CCc1ccccc1)N1CCCC1`, the binding response (% of control) was inconclusive: 95.8%. For `Nn1c(SCc2cn3ccccc3n2)nnc1-c1ccncc1`, the binding response (% of control) was inconclusive: 118%. For `Cc1cccc(OC(C)C(=O)N(Cc2cccs2)C2CCS(=O)(=O)C2)c1C` (configuration not stated), the binding response (% of control) was inactive: 77.6%. In the case of `COc1ccc(C(C)=O)cc1COc1ccc([N+](=O)[O-])c(C)c1`, the binding response (% of control) was inconclusive: 115%. For `CC1=CC2=NC(=O)/C(=C/c3cccs3)C(=N)N2O1`, the binding response (% of control) was inconclusive: 127%. In the case of `Cc1cc(-n2cnnn2)ccc1C(C)C`, the binding response (% of control) was inconclusive: 87.3%. `CCC(=O)Nc1cccc(C2=NOC3(C2)C[C@@H](C(N)=O)N(C(=O)C2(C)CC2)C3)c1` (some centres not stated) was tested, and the binding response (% of control) was inconclusive: 109%. In the case of `CC(Sc1nc(-c2ccccc2)nc2c1COC(C)(C)C2)C(=O)N1CCOCC1` (configuration not stated), the binding response (% of control) was inactive: 98.6%. `O=C(O)[C@H](Cc1ccccc1)NC(=O)N1CCN(c2ccccc2)CC1` was tested, and the binding response (% of control) was inconclusive: 43.4%. With `CC(C)CN(CC(C)C)S(=O)(=O)N1CCC(C(=O)NCc2ccco2)CC1` the binding response (% of control) was inactive: 97%. For `O=C(CCC(=O)c1ccc(-c2ccccc2)cc1)Nc1cccnc1`, the binding response (% of control) was inconclusive: 129%. In the case of `CC(=O)c1cc2c(cc1NC(=O)C1CCC1)OCO2`, the binding response (% of control) was inactive: 97.8%. For `Cc1ccc2[nH]c(=O)c(-c3noc(CC(C)C)n3)cc2c1`, the binding response (% of control) was inconclusive: 106%. In the case of `CCCCCn1c(=N)n(CC(O)COc2ccccc2OC)c2ccccc21` (configuration not stated), the binding response (% of control) was inconclusive: 92.6%. For `CC(C)CN1CCNC(=O)C1CC(=O)NCCCN1CCCc2ccccc21` (configuration not stated), the binding response (% of control) was inactive: 102%. `CCCCNC(=O)Nc1nnc(C(C)(C)C)s1` was tested, and the binding response (% of control) was inconclusive: 46.3%. In the case of `Nn1c(SCc2cc([N+](=O)[O-])cc3c2OCOC3)nnc1-c1ccccn1`, the binding response (% of control) was inconclusive: 75%. In the case of `CCCNc1c(N)c(=O)c1=O`, the binding response (% of control) was inconclusive: 91.7%. In the case of `CCOP(=O)(OCC)C(Nc1cccc([N+](=O)[O-])c1)c1ccc(OC)cc1` (configuration not stated), the binding response (% of control) was inconclusive: 60.3%. `CCC(=O)NC(=S)Nc1ccc(NC(=O)c2ccc(Br)o2)cc1` was tested, and the binding response (% of control) was inactive: 103%. With `CCc1nn(C)c2c(=O)c(=O)c2n(C)[nH]1` the binding response (% of control) was inconclusive: 99.1%. In the case of `Cc1ccccc1OCC(=O)N(Cc1cccs1)C1CCS(=O)(=O)C1` (configuration not stated), the binding response (% of control) was inactive: 96.6%. `COc1ccc(C(CCN2CCN(c3ccccc3)CC2)c2c(OC)cc(OC)c3c(-c4ccccc4)cc(=O)oc23)cc1` (configuration not stated) was tested, and the binding response (% of control) was inconclusive: 95%. With `O=C(c1ccccc1)N1CCCN(c2nccc(C(F)(F)F)n2)CC1` the binding response (% of control) was inconclusive: 111%. `N#Cc1c(SC(C(=O)O)c2ccccc2)nc2c(c1-c1cccs1)CCCC2` (configuration not stated) was tested, and the binding response (% of control) was inconclusive: 83%. For `Cn1nnnc1SCC(=O)NNC(=O)c1ccc(F)cc1`, the binding response (% of control) was inconclusive: 91.8%. In the case of `CCOC(=O)c1cc2occc2n1CCCN1C(=O)c2ccccc2C1=O`, the binding response (% of control) was inactive: 101%. With `O=S(=O)(NC1c2cccc3cccc(c23)C1Sc1ncccn1)c1ccccc1` (configuration not stated) the binding response (% of control) was inactive: 98%. In the case of `Cc1oc(S(=O)(=O)N2CCCCC2)cc1NC(=O)Nc1ccc(Cl)cc1`, the binding response (% of control) was inconclusive: 134%. In the case of `COc1ccc(C(=O)O)cc1S(=O)(=O)N(CCc1ccccc1)Cc1ccccc1`, the binding response (% of control) was inconclusive: 125%. `CCN(CC)S(=O)(=O)c1ccc(N2CCOCC2)c(NC(=O)C23CC4CC(CC(Cl)(C4)C2)C3)c1` was tested, and the binding response (% of control) was inactive: 104%. For `CCOc1c(N2CCOCC2)c(=O)c1=O`, the binding response (% of control) was inconclusive: 76.2%. With `Cc1ccc(NC(=O)Nc2cc(S(C)(=O)=O)ccc2Cl)cc1` the binding response (% of control) was inconclusive: -85%. In the case of `COc1cccc(-c2nnc(NC(=O)c3cccc(F)c3)o2)c1`, the binding response (% of control) was inconclusive: 92.5%. With `CC(C)[C@H](NC(=O)c1ccco1)C(=O)OCC(=O)Nc1ccc(F)cc1` the binding response (% of control) was inconclusive: 120%. For `Cc1cc(C)cc(NC(=O)C2(c3cccs3)CCOCC2)c1`, the binding response (% of control) was inactive: 92.2%. In the case of `CCCCn1nc2cc(C(=O)NC3CCCc4ccccc43)ccc2c1OCC` (configuration not stated), the binding response (% of control) was inactive: 97.6%. `COc1ccccc1NC(=O)C1=C(C)NC(=O)NC1c1ccco1` (configuration not stated) was tested, and the binding response (% of control) was inconclusive: 99%. In the case of `Cc1cc(/C=C2\NC(=O)NC2=O)c(C)n1-c1cccnc1`, the binding response (% of control) was inconclusive: 91.5%. For `COC(=O)c1ccccc1NC(=S)N1CCN(c2ccc(OC)cc2)CC1`, the binding response (% of control) was inconclusive: 118%. For `CC(C)OC1(c2ccccc2)OC(=O)c2ccccc21` (configuration not stated), the binding response (% of control) was inconclusive: 93.4%. With `CN1C(=O)N2CN(C3CCCCC3)CN3C(=O)N(C)C1C23` (configuration not stated) the binding response (% of control) was inactive: 96.7%. `NC(=O)N/N=C/c1cn(-c2ccccc2)nc1-c1cccnc1` was tested, and the binding response (% of control) was inconclusive: 118%. With `Cc1nc2c(Cl)c(C)nn2c2c1CCC2` the binding response (% of control) was inconclusive: 103%. For `CN(C)/N=C/c1ccc(/C=N/NC(N)=S)o1`, the binding response (% of control) was inconclusive: 111%. In the case of `Nc1c(C(=O)OCC(=O)Nc2ccc(Cl)cc2[N+](=O)[O-])[nH]c(=O)[nH]c1=O`, the binding response (% of control) was inconclusive: 124%. With `O=C(Nc1nc2ccccc2n1CCN1CCOCC1)c1ccc(Cl)cc1` the binding response (% of control) was inconclusive: 86.1%. For `C=CCOc1cccc(C2c3c(oc4ccc(F)cc4c3=O)C(=O)N2CCCN2CCOCC2)c1` (configuration not stated), the binding response (% of control) was inconclusive: 135%. In the case of `O=C(NCc1cccnc1)Nc1cccc(NC(=O)NCc2cccnc2)c1F`, the binding response (% of control) was inconclusive: 107%. In the case of `O=C(/C=C/c1ccccc1)NC1CC2CCCC(C1)N2Cc1ccccc1` (configuration not stated), the binding response (% of control) was inconclusive: 122%. `N#Cc1ccc(OCC(=O)NC2=NCCS2)cc1` was tested, and the binding response (% of control) was inconclusive: 118%. `Nn1c(-c2ccccc2Cl)nnc1-c1ccccc1Cl` was tested, and the binding response (% of control) was inactive: 113%. For `O=C(COc1ccc(Cl)cc1Cl)NC(=S)Nc1ccc(CN2CCOCC2)cc1`, the binding response (% of control) was inconclusive: 129%. With `O=C(Nc1ccccc1N1CCOCC1)c1cc(Br)c(Br)s1` the binding response (% of control) was inconclusive: 95.4%. In the case of `Cn1ncc2c(Nc3ccc(Br)cc3)nc(Nc3ccc(Br)cc3)nc21`, the binding response (% of control) was inconclusive: 223%. For `Cc1onc(-c2ccc(Cl)cc2)c1-c1ccnc(SCC(=O)Nc2ccc(C(C)C)cc2)n1`, the binding response (% of control) was inconclusive: 103%. `COc1ccc2c(c1OC)C(=O)OC2Nc1nc(-c2cccc([N+](=O)[O-])c2)cs1` (configuration not stated) was tested, and the binding response (% of control) was inconclusive: 92.9%. With `C[C@H](NC(=O)c1nc[nH]c1C(=O)N1CCc2ccccc2C1)C(=O)OCc1ccccc1` the binding response (% of control) was inconclusive: 89.2%. `CN1CCN(C(=O)Nc2ccc([N+](=O)[O-])cc2)CC1` was tested, and the binding response (% of control) was inconclusive: 89.3%. For `COc1cccc2c1NC(C(=O)O)C1CC=CC21` (configuration not stated), the binding response (% of control) was active: 36.2%. For `O=C(c1ccccc1)c1ccc(Sc2ccc([N+](=O)[O-])cc2)cc1`, the binding response (% of control) was inconclusive: 139%. For `CC12CN(NC(=O)c3ccc(Cl)cc3)C3(C#N)CC1CCC23C` (configuration not stated), the binding response (% of control) was inconclusive: 114%. `O=C(N/N=C/c1cc([N+](=O)[O-])ccc1O)c1cccc2cc[nH]c12` was tested, and the binding response (% of control) was inconclusive: 431%. In the case of `CCNC(=O)COC(=O)/C=C/c1cccs1`, the binding response (% of control) was inconclusive: 122%. `C/C(=N\N(Cc1ccccc1)c1ccccc1)c1ccncc1` was tested, and the binding response (% of control) was inconclusive: 97.8%. `COc1ccccc1N1CCN(C(c2cccs2)C(C)NC(=O)c2ccncc2)CC1` (configuration not stated) was tested, and the binding response (% of control) was inconclusive: 100%. For `Cn1c(CSCCOc2ccccc2)n[nH]c1=S`, the binding response (% of control) was inconclusive: 125%. In the case of `Cc1cc(N=Nc2ccc(C)c(N=Nc3cc(C)c(N)cc3N)c2)c(N)cc1N`, the binding response (% of control) was inconclusive: 94.6%. For `COCCNC(=O)C(NC(=O)C1CCC(C)CC1)C(C)C` (configuration not stated), the binding response (% of control) was inconclusive: 96.9%. With `CCCOc1ccc(CCc2n[nH]c(=S)n2-c2ccccc2)cc1` the binding response (% of control) was inconclusive: 108%. In the case of `O=C(Nc1ccc2[nH]c(=S)sc2c1)Nc1ccccc1F`, the binding response (% of control) was inconclusive: 299%. In the case of `COc1ccc(C(=O)Nc2n[nH]c(-c3ccncc3)n2)cc1`, the binding response (% of control) was inactive: 101%. `O=C(CSCc1ccc([N+](=O)[O-])cc1)Nc1ccccc1C(=O)O` was tested, and the binding response (% of control) was inactive: 98.3%. For `O=C(c1ccc(COc2ccccc2Cl)o1)N1N=C(C(F)F)CC1(O)C(F)F` (configuration not stated), the binding response (% of control) was inactive: 101%. In the case of `CC(C)(C)C(=O)NNC(=O)c1cnccn1`, the binding response (% of control) was inconclusive: 101%. In the case of `CC(/C=N\Nc1nnc2c(n1)[nH]c1c(C)cccc12)=C\c1ccco1`, the binding response (% of control) was inactive: 94%. With `CN(C)CCCNc1nc(-c2ccccc2)nc2ccccc12` the binding response (% of control) was inconclusive: 129%.
